Laboratory results: patent US9102678B2, “Compounds and methods for inhibiting mitotic progression” (Millennium Pharmaceuticals, Inc., priority 2004, dated 2015)
Some results were stated once for a whole list of compounds, not compound by compound.

Amino acid sequences for entries named in this document (tags omitted). A change or cut given only in a name is not applied to a line headed by its entry.
UniProt P97477: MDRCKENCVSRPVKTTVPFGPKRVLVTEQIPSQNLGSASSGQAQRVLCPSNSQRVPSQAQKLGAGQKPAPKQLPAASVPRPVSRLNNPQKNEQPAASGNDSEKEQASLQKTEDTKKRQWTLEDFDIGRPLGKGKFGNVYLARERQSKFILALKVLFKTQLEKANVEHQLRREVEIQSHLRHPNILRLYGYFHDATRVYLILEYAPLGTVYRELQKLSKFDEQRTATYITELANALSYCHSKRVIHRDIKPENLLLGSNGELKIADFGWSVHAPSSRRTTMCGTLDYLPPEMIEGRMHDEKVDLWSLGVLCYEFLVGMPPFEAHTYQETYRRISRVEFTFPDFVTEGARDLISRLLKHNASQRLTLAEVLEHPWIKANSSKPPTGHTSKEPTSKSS

Biological target: T1, recombinant murine Aurora A enzyme (Mus musculus, UniProt P97477)
T1 construct: hexahistidine (His6) (N); made in house; host or cells: insect cells, baculovirus (Bac-to-Bac, Invitrogen)
Assay: Aurora A DELFIA Kinase Assay
Format: biochemical
Details: 250 μM ATP, threshold less than or equal to 1.0 μM

## CCOC(=O)N1CCN(C(=O)c2ccc(Nc3ncc4c(n3)-c3ccc(Cl)cc3C(c3ccccc3F)=NC4)cc2)CC1 [Compound I-168, Ethyl-4-(4-{[9-chloro-7-(2-fluorophenyl)-5H-pyrimido-[5,4-d][2]benzazepin-2-yl]amino}benzoyl)piperazine-1-carboxylate]
  IC50: ≤ 1 µM

## C[C@@H]1CN(C(=O)c2csc(Nc3ncc4c(n3)-c3ccc(Cl)cc3C(c3c(F)cccc3F)=NC4)n2)CCN1 [Compound I-365, 9-chloro-7-(2,6-difluorophenyl)-N-(4-{[(3R)-3-methylpiperazin-1-yl]carbony}-1,3-thiazol-2-yl)-5H-pyrimido[5,4-d][2]benzazepin-2-amine]
  IC50: ≤ 1 µM

## O=C(O)Cc1cccc(Nc2ncc3c(n2)-c2ccc(Cl)cc2C(c2ccccc2F)=NC3)c1 [Compound I-149, {3-[9-Chloro-7-(2-fluoro-phenyl)-5H-benzo[c]pyrimido[4,5-e]azepin-2-ylamino]-phenyl}-acetic acid]
  IC50: ≤ 1 µM

## CC(=O)c1ccc(Nc2ncc3c(n2)-c2ccc(Cl)cc2C(c2c(F)cccc2F)=NC3)cc1 [Compound I-337, 1-(4-{[9-chloro-7-(2,6-difluorophenyl)-5H-pyrimido[5,4-d][2]benzazepin-2-yl]amino}phenyl)ethanone]
  IC50: ≤ 1 µM

## COc1ccccc1C1=NCc2cnc(Nc3ccc(C(=O)O)cc3)nc2-c2ccc(Cl)cc21 [Compound I-55, 4-[9-Chloro-7-(2-methoxy-phenyl)-5H-benzo[c]pyrimido[4,5-e]azepin-2-ylamino]-benzoic acid]
  IC50: ≤ 1 µM

## CNC1CN(C(=O)c2ccc(Nc3ncc4c(n3)-c3ccc(Cl)cc3C(c3ccccc3C(F)(F)F)=NC4)cc2)C1 [Compound I-297, 9-chloro-N-(4-{[3-(methylamino)azetidin-1-yl]carbonyl}phenyl)-7-[2-(trifluoromethyl)phenyl]-5H-pyrimido[5,4-d][2]benzazepin-2-amine]
  IC50: ≤ 1 µM

## NC1CN(C(=O)c2ccc(Nc3ncc4c(n3)-c3ccc(Cl)cc3C(c3ccccc3C(F)(F)F)=NC4)cc2)C1 [Compound I-296, N-{4-[(3-aminoazetidin-1-yl)carbonyl]phenyl}-9-chloro-7-[2-(trifluoromethyl)phenyl]-5H-pyrimido[5,4-d][2]benzazepin-2-amine]
  IC50: ≤ 1 µM

## O=C(c1ccc(Nc2ncc3c(n2)-c2ccc(Cl)cc2C(c2c(F)cccc2F)=NC3)cc1)N1CCNCC1 [Compound I-195, {4-[9-Chloro-7-(2,6-difluoro-phenyl)-5H-benzo[c]pyrimido[4,5-e]azepin-2-ylamino]-phenyl}-piperazin-1-yl-methanone]
  IC50: ≤ 1 µM

## NCC1CN(C(=O)c2ccc(Nc3ncc4c(n3)-c3ccc(Cl)cc3C(c3ccccc3F)=NC4)cc2)C1 [Compound I-230, N-(4-{[3-(aminomethyl)azetidin-1-yl]carbonyl}phenyl)-9-chloro-7-(2-fluorophenyl)-5H-pyrimido[5,4-d][2]benzazepin-2-amine]
  IC50: ≤ 1 µM

## CN1CCN(C(=O)Cc2ccc(Nc3ncc4c(n3)-c3ccc(Cl)cc3C(c3ccccc3F)=NC4)cc2)CC1 [Compound I-145, 2-{4-[9-Chloro-7-(2-fluoro-phenyl)-5H-benzo[c]pyrimido[4,5-e]azepin-2-ylamino]-phenyl}-1-(4-methyl-piperazin-1-yl)-ethanone]
  IC50: ≤ 1 µM

## NC1CCN(C(=O)c2ccc(Nc3ncc4c(n3)-c3ccc(Cl)cc3C(c3ccccc3F)=NC4)cc2)CC1 [Compound I-17, (4-Amino-piperidin-1-yl)-{4-[9-chloro-7-(2-fluoro-phenyl)-5H-benzo[c]pyrimido[4,5-e]azepin-2-ylamino]-phenyl}-methanone]
  IC50: ≤ 1 µM

## Cc1ccc2c(c1)C(c1ccccc1F)=NCc1cnc(Nc3ccc(C(=O)O)cc3)nc1-2 [Compound I-58, 4-[7-(2-Fluoro-phenyl)-9-methyl-5H-benzo[c]pyrimido[4,5-e]azepin-2-ylamino]-benzoic acid]
  IC50: ≤ 1 µM

## COC(=O)C1(N)CCN(C(=O)c2ccc(Nc3ncc4c(n3)-c3ccc(Cl)cc3C(c3c(F)cccc3F)=NC4)cc2)CC1 [Compound I-294, methyl 4-amino-1-(4-{[9-chloro-7-(2,6-difluorophenyl)-5H-pyrimido[5,4-d][2]benzazepin-2-yl]amino}benzoyl)piperidine-4-carboxylate]
  IC50: ≤ 1 µM

## COc1cccc(F)c1C1=NCc2cnc(Nc3cccc(C(=O)N4CC(N(C)C)C4)c3)nc2-c2ccc(Cl)cc21 [Compound I-227, 9-chloro-N-(3-{[3-(dimethylamino)azetidin-1-yl]carbonyl}phenyl)-7-(2-fluoro-6-methoxyphenyl)-5H-pyrimido[5,4-d][2]benzazepin-2-amine]
  IC50: ≤ 1 µM

## CC(C)(N)C(=O)Nc1ccc(Nc2ncc3c(n2)-c2ccc(Cl)cc2C(c2c(F)cccc2F)=NC3)cc1 [Compound I-308, 2-amino-N-(4-{[9-chloro-7-(2,6-difluorophenyl)-5H-pyrimido[5,4-d][2]benzazepin-2-yl]amino}phenyl)-2-methylpropanamide]
  IC50: ≤ 1 µM

## CN(C)C1CCN(C(=O)c2ccc(Nc3ncc4c(n3)-c3ccc(Cl)cc3C(c3c(F)cccc3F)=NC4)cc2)C1 (stereo not shown) [Compound I-176, 9-Chloro-7-(2,6-difluorophenyl)-N-(4-{[3-(dimethylamino)pyrrolidin-1-yl]carbonyl}phenyl)-5H-pyrimido[5,4-d][2]benzazepin-2-amine]
  IC50: ≤ 1 µM

## CN(C)C1CN(C(=N)c2ccc(Nc3ncc4c(n3)-c3ccc(Cl)cc3C(c3c(F)cccc3F)=NC4)cc2)C1 [Compound I-267, 9-chloro-7-(2,6-difluorophenyl)-N-{4-[[3-(dimethylamino)azetidin-1-yl](imino)methyl]phenyl}-5H-pyrimido[5,4-d][2]benzazepin-2-amine]
  IC50: ≤ 1 µM

## CN1CCN(CCCNC(=O)c2ccc(Nc3ncc4c(n3)-c3ccc(Cl)cc3C(c3ccc(F)cc3)=NC4)cc2)CC1 [Compound I-23, 4-[9-Chloro-7-(4-fluoro-phenyl)-5H-benzo[c]pyrimido[4,5-e]azepin-2-ylamino]-N-[3-(4-methyl-piperazin-1-yl)-propyl]-benzamide]
  IC50: ≤ 1 µM

## NC1(C(=O)O)CCN(C(=O)c2ccc(Nc3ncc4c(n3)-c3ccc(Cl)cc3C(c3c(F)cccc3F)=NC4)cc2)CC1 [Compound I-295, 4-amino-1-(4-{[9-chloro-7-(2,6-difluorophenyl)-5H-pyrimido[5,4-d][2]benzazepin-2-yl]amino}benzoyl)piperidine-4-carboxylic acid]
  IC50: ≤ 1 µM

## COc1cccc(F)c1C1=NCc2cnc(Nc3cccc(C(=O)N4CCC(N(C)C)C4)c3)nc2-c2ccc(Cl)cc21 (stereo not shown) [Compound I-231, 9-chloro-N-(3-{[3-(dimethylamino)pyrrolidin-1-yl]carbonyl}phenyl)-7-(2-fluoro-6-methoxyphenyl)-5H-pyrimido[5,4-d][2]benzazepin-2-amine]
  IC50: ≤ 1 µM

## Nc1ccc(Nc2ncc3c(n2)-c2ccc(Cl)cc2C(c2c(F)cccc2F)=NC3)cc1 [Compound I-217, N-[9-chloro-7-(2,6-difluorophenyl)-5H-pyrimido[5,4-d][2]benzazepin-2-yl]benzene-1,4-diamine]
  IC50: ≤ 1 µM

## COc1cccc(F)c1C1=NCc2cnc(Nc3ccc(C(=O)N4CCN(C)CC4)cc3)nc2-c2ccc(Cl)cc21 [Compound I-233, 9-chloro-7-(2-fluoro-6-methoxyphenyl)-N-{4-[(4-methylpiperazin-1-yl)carbonyl]phenyl}-5H-pyrimido[5,4-d][2]benzazepin-2-amine]
  IC50: ≤ 1 µM

## COc1cccc(F)c1C1=NCc2cnc(Nc3ccc(C(=O)N4CCCC(N)C4)cc3)nc2-c2ccc(Cl)cc21 (stereo not shown) [Compound I-262]
  IC50: ≤ 1 µM

## NC1CCN(C(=O)c2ccc(Nc3ncc4c(n3)-c3ccc(Cl)cc3C(c3ncccc3F)=NC4)cc2)CC1 [Compound I-304, N-{4[(4-aminopiperidin-1-yl)carbonyl]phenyl}-9-chloro-7-(3-fluoropyridin-2-yl)-5H-pyrimido[5,4-d][2]benzazepin-2-amine]
  IC50: ≤ 1 µM

## O=C(O)c1ccc(Nc2ncc3c(n2)-c2cc(F)ccc2C(c2ccccc2F)=NC3)cc1 [Compound I-59, 4-[10-Fluoro-7-(2-fluoro-phenyl)-5H-benzo[c]pyrimido[4,5-e]azepin-2-ylamino]-benzoic acid]
  IC50: ≤ 1 µM

## Cc1cc(NS(=O)(=O)c2ccc(Nc3ncc4c(n3)-c3ccc(Cl)cc3C(c3ccccc3Cl)=NC4)cc2)no1 [Compound I-69, 4-[9-Chloro-7-(2-chloro-phenyl)-5H-benzo[c]pyrimido[4,5-e]azepin-2-ylamino]-N-(5-methyl-isoxazol-3-yl)-benzenesulfonamide]
  IC50: ≤ 1 µM

## CNC1CN(C(=O)c2cc(Nc3ncc4c(n3)-c3ccc(Cl)cc3C(c3c(F)cccc3F)=NC4)ccc2Cl)C1 [Compound I-291, 9-chloro-N-(4-chloro-3-{[3-(methylamino)azetidin-1-yl]carbonyl}phenyl)-7-(2,6-difluorophenyl)-5H-pyrimido[5,4-d][2]benzazepin-2-amine]
  IC50: ≤ 1 µM

## C[C@@H]1CN(C(=O)c2ccc(Nc3ncc4c(n3)-c3ccc(Cl)cc3C(c3c(F)cccc3F)=NC4)cc2)CCN1 [Compound I-194, {4-[9-Chloro-7-(2,6-difluoro-phenyl)-5H-benzo[c]pyrimido[4,5-e]azepin-2-ylamino]-phenyl}-(3(R)-methyl-piperazin-1-yl)-methanone]
  IC50: ≤ 1 µM

## CNCCN(C)C(=O)c1ccc(Nc2ncc3c(n2)-c2ccc(Cl)cc2C(c2c(F)cccc2F)=NC3)cc1 [Compound I-246, 4-{[9-chloro-7-(2,6-difluorophenyl)-5H-pyrimido[5,4-d][2]benzazepin-2-yl]amino}-N-methyl-N-[2-(methylamino)ethyl]benzamide]
  IC50: ≤ 1 µM

## COC(=O)C1CN(C(=O)c2ccc(Nc3ncc4c(n3)-c3ccc(Cl)cc3C(c3c(F)cccc3F)=NC4)cc2)CCN1 (stereo not shown) [Compound I-248, methyl 4-(4-{[9-chloro-7-(2,6-difluorophenyl)-5H-pyrimido[5,4-d][2]benzazepin-2-yl]amino}benzoyl)piperazine-2-carboxylate]
  IC50: ≤ 1 µM

## COc1cccc(F)c1C1=NCc2cnc(Nc3ccc(C(=O)N(C)CCCN)cc3)nc2-c2ccc(Cl)cc21 [Compound I-264, N-(3-aminopropyl)-4-{[9-chloro-7-(2-fluoro-6-methoxyphenyl)-5H-pyrimido[5,4-d][2]benzazepin-2-yl]amino}-N-methylbenzamide]
  IC50: ≤ 1 µM
